From patent publication US20240307489A1 (WESTLAKE UNIVERSITY, published 2024)
These are yes or no findings as the source states them, for the method shown. Binding seen in cells or lysates may run through a third protein. Some binding calls cover weakened binding; strength is not graded here. One block for each molecule: values may come before it.

By UniProt entry, the sequences of proteins in these tests, tags left out. Where a name states a change or a piece, a line headed by the entry shows the natural chain unless it says otherwise. Chains listed by the source or under a name are the forms on record and can include a tag or linker. Residues count along the entry.
UniProt Q07954: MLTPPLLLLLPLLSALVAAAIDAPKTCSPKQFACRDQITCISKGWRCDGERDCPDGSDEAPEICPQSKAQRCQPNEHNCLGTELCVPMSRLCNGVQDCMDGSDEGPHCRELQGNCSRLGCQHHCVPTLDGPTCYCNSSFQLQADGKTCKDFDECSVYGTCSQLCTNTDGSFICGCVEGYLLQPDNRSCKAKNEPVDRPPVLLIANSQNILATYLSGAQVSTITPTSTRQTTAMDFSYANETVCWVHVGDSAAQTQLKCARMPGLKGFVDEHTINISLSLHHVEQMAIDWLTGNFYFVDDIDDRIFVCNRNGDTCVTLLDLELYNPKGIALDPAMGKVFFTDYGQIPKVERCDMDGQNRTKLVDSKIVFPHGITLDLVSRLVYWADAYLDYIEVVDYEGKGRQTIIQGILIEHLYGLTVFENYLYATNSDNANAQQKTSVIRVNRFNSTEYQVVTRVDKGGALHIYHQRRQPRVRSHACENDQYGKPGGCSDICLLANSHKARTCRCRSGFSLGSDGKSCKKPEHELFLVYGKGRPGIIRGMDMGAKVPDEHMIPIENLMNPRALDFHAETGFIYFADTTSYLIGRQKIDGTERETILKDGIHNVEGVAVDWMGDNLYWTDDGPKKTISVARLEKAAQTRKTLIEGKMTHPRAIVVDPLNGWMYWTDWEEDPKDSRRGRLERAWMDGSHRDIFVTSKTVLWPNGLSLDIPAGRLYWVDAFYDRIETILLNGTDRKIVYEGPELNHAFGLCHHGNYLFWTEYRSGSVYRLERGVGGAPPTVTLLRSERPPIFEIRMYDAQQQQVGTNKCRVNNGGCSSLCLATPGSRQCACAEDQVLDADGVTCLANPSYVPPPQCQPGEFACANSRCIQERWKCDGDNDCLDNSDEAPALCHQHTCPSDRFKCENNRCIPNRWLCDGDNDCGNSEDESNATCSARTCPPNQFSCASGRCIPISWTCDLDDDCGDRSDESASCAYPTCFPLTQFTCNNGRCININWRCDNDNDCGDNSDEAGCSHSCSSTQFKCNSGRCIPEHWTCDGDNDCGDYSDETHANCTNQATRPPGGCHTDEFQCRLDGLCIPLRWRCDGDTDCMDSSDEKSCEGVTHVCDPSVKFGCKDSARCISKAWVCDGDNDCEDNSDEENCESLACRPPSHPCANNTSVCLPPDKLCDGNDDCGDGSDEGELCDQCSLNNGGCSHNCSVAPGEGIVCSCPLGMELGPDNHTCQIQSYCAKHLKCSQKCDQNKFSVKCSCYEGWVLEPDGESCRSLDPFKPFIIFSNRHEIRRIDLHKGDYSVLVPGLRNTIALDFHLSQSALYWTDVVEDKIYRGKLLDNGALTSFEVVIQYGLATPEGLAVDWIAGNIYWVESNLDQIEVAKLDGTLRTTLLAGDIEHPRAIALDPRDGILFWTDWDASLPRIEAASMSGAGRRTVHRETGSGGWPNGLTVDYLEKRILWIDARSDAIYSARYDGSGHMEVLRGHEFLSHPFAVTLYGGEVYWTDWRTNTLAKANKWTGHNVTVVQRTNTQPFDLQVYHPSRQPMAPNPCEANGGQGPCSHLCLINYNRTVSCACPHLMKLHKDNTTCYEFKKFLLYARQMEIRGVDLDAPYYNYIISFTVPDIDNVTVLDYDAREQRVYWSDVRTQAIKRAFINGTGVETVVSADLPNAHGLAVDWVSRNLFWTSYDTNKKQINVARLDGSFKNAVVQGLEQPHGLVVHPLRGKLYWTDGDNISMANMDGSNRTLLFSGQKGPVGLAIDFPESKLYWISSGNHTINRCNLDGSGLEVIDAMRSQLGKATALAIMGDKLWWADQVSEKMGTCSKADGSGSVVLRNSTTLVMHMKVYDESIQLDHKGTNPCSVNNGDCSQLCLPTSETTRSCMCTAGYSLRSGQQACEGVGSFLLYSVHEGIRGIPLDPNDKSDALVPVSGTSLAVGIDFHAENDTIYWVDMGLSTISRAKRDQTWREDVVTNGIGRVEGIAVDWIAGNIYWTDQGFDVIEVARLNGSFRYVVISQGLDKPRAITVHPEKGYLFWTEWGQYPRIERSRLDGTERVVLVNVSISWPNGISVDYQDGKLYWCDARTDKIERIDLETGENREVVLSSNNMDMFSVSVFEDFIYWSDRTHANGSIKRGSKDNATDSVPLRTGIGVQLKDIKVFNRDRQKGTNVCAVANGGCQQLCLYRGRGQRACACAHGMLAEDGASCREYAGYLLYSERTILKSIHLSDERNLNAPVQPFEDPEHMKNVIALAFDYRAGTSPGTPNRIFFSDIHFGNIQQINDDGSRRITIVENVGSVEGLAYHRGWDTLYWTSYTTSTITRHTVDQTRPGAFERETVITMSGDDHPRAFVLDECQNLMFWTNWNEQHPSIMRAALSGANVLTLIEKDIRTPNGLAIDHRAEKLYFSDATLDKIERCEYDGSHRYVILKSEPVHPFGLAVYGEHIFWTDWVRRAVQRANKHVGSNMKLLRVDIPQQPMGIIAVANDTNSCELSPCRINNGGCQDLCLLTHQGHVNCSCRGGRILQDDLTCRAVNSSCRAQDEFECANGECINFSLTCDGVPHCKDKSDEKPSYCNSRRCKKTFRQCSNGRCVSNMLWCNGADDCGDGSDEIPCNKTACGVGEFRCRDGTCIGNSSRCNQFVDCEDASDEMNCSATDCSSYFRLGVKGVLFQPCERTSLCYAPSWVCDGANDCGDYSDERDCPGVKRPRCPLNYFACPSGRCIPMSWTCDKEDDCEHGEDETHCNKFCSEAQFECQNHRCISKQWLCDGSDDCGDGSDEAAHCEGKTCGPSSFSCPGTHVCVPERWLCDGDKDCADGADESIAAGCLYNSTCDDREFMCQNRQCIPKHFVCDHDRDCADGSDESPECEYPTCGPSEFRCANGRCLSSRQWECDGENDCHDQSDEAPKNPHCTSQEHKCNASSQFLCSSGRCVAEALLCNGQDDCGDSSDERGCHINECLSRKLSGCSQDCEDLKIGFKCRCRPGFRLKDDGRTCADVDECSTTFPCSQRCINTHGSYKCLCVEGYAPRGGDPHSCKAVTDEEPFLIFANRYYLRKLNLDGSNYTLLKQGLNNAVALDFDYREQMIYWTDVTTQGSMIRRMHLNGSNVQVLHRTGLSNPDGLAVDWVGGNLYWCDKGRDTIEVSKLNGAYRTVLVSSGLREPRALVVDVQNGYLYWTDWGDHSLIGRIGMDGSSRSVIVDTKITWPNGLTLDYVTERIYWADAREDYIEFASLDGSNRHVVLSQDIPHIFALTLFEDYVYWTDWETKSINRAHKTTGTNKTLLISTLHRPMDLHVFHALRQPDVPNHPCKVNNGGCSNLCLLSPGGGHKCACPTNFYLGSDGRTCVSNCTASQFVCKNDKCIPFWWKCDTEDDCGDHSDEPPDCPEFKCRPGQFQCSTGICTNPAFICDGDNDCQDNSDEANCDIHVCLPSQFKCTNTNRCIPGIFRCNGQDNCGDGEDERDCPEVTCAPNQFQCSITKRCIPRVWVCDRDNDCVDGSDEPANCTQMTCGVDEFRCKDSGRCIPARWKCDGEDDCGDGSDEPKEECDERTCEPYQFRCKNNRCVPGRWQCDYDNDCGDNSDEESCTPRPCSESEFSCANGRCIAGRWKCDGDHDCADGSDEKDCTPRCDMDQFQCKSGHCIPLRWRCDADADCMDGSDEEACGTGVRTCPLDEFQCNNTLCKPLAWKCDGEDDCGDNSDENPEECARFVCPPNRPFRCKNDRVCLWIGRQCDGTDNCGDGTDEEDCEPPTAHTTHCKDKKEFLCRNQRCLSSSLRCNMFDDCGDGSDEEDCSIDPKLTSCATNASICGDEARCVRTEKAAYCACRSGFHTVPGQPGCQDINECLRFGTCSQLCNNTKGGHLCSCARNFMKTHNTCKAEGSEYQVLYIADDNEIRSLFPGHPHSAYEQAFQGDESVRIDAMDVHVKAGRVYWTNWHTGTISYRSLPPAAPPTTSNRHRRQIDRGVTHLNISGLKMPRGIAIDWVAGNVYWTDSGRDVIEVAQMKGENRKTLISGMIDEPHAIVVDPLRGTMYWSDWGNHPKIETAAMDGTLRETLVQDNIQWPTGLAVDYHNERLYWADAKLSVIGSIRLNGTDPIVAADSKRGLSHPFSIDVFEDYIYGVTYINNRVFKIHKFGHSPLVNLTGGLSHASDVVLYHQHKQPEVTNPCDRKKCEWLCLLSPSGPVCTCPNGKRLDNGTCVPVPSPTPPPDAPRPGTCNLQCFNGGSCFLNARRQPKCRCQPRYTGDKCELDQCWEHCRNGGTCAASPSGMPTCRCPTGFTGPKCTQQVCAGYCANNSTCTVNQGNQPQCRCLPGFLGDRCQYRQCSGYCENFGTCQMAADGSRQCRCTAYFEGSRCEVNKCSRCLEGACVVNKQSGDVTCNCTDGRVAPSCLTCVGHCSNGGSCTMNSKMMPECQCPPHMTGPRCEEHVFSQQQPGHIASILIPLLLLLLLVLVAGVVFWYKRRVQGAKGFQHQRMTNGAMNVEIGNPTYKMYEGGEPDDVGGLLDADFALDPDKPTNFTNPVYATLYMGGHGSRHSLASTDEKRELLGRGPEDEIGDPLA
LRP1α, extracellular ligand-binding subunit of 515 kDa of LRP1, endogenous in HEK293T cells: residues 20-3943 of Q07954
Myc-tagged LRP1β: residues 3944-4544 of Q07954
UniProt P30533: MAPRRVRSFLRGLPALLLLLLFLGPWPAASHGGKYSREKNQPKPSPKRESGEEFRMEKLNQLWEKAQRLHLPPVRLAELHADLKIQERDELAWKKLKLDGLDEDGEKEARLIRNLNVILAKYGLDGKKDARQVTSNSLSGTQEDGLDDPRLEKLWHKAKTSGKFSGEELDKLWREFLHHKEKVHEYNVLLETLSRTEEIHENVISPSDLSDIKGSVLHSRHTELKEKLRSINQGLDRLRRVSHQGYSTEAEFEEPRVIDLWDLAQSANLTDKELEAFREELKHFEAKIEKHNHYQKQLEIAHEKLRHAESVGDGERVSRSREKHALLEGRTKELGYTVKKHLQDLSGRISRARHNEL

How the values were obtained:
[1] = target: LRP1β, transmembrane and intracellular subunit of 85 kDa of LRP1, endogenous in HEK293T cells (human) (UniProt Q07954); experiment: co-immunoprecipitation of endogenous proteins from HEK293T lysate, western blot
[2] = target: LRP1α, extracellular ligand-binding subunit of 515 kDa of LRP1, endogenous in HEK293T cells (human) (UniProt Q07954); experiment: GST pull-down of HEK293T lysate with GST-RAPm6 on glutathione sepharose, western blot for LRP1α
[3] = target: DLL3, endogenous in HEK293T cells (human) (UniProt Q9NYJ7); experiment: co-immunoprecipitation of endogenous proteins from HEK293T lysate, western blot
[4] = target: DLL3, endogenous in HEK293T cells (human) (UniProt Q9NYJ7); experiment: figure legend heading (co-IP, pull-down)
[5] = target: DLL3, endogenous in HEK293T cells (human) (UniProt Q9NYJ7); experiment: co-immunoprecipitation of endogenous proteins from HEK293T lysate
Myc-tagged DLL3 (human) = Myc-tagged DLL3 (human) (UniProt Q9NYJ7); experiment: S-bead pull-down of cSFB-LRP1β with Myc-DLL3 from co-transfected HEK293T cells
Myc-tagged LRP1β (human) = Myc-tagged LRP1β (human) (UniProt Q07954); experiment: S-bead pull-down of cSFB-DLL3 with Myc-LRP1β from co-transfected HEK293T cells

binding [1]: binds
Molecule: DLL3, endogenous in HEK293T cells (from UniProt Q9NYJ7 27-618) (ligand)

binding [2]: binds
Molecule: GST-RAPm6 (LRPAP1 mutant RAPm6 fused to GST, purified from E. coli) (from UniProt P30533 35-357)

binding [3]: binds
binding [4]: binds
Molecule: LRP1 (low density lipoprotein receptor-related protein 1), endogenous in HEK293T cells (from UniProt Q07954 20-4544)

binding [5]: binds
Molecule: LRP1β, transmembrane and intracellular subunit of 85 kDa of LRP1, endogenous in HEK293T cells (from UniProt Q07954 3944-4544) (receptor)

binding (Myc-tagged DLL3 (human)): binds
Molecule: cSFB-tagged wild-type LRP1β (from UniProt Q07954 3944-4544) (receptor)

binding (Myc-tagged LRP1β (human)): binds
B1: cSFB-tagged wild-type DLL3 (ligand, human, UniProt Q9NYJ7 27-618, looked up)
chain: AGVFELQIHSFGPGPGPGAPRSPCSARLPCRLFFRVCLKPGLSEEAAESPCALGAALSARGPVYTEQPGAPAPDLPLPDGLLQVPFRDAWPGTFSFIIETWREELGDQIGGPAWSLLARVAGRRRLAAGGPWARDIQRAGAWELRFSYRARCEPPAVGTACTRLCRPRSAPSRCGPGLRPCAPLEDECEAPLVCRAGCSPEHGFCEQPGECRCLEGWTGPLCTVPVSTSSCLSPRGPSSATTGCLVPGPGPCDGNPCANGGSCSETPRSFECTCPRGFYGLRCEVSGVTCADGPCFNGGLCVGGADPDSAYICHCPPGFQGSNCEKRVDRCSLQPCRNGGLCLDLGHALRCRCRAGFAGPRCEHDLDDCAGRACANGGTCVEGGGAHRCSCALGFGGRDCRERADPCAARPCAHGGRCYAHFSGLVCACAPGYMGARCEFPVHPDGASALPAAPPGLRPGDPQRYLLPPALGLLVAAGVAGAALLLVHVRRRGHSQDAGSRLLAGTPEPSVHALPDALNNLRTQEGSGDGPSSSVDWNRPEDVDPQGIYVISAPSIYAREVATPLFPPLHTGRAGQRQHLLFPYPSSILSVK
notes: Expressed in HEK293T cells, pulled down on S beads; also called cSFB-DLL3; C-terminal SFB-fused DLL3; not shown: C-terminal SFB triple tag (S protein tag-2xFLAG tag-SBP tag)
